PubChem BioAssay AID504744, Drosophila RNAi Screening Center – 2011

- Aim: 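Uncover factors, including feedback loops, that control dAkt activation in fly cells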 (primary screen)
- Cells: Drosophila Kc167 cells
- Knock-down reagent: long dsRNA against Drosophila genes, 250 ng dsRNA per well of a 384-well plate
- Duration: 3 days of knock-down, then overnight serum-free starvation before stimulation
- Conditions: bovine insulin at 387 nM for 10 minutes after 12 h without serum
- Measured: 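Per-well phospho-dAkt level from an in-cell fluorescent antibody stain, divided by a DNA-dye signal; log2 residuals turned into z-scores that take cell number into account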
- Active means: 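Under insulin, a gene counts as a hit if the average z-score of two replicates lies above 2.5 or below -2.5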
In all, the deposit lists about 23,000 reagents; below is an unselected part of those with a known target gene and a result. Of all reagents, 98 (0.43%) are marked active. 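Only hit calls are given; the phospho-dAkt signals, z-scores and hit direction were not deposited.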 A plus sign joins genes that one reagent is predicted to hit. Reagent sequences are not shown.

CG6621 [DRSC16076] — Call: inactive
CstF64 (Cleavage stimulation factor 64 kD subunit) [DRSC16616] — Call: inactive
CG14330 [DRSC14809] — Call: inactive
CG9447 [DRSC05008] — Call: inactive
CG9674 [DRSC11088] — Call: inactive
CG9674 [DRSC11089] — Call: inactive
CG43163 [DRSC10745] — Call: inactive
CG43163 [DRSC10748] — Call: inactive
Paics (PAICS bifunctional enzyme) [DRSC20305] — Call: inactive
mfrn (mitoferrin) [DRSC15687] — Call: inactive
CG8003 [DRSC10946] — Call: inactive
CG5506 [DRSC10511] — Call: inactive
CG7692 [DRSC10902] — Call: inactive
CG11570 [DRSC09844] — Call: inactive
Rab19 [DRSC11260] — Call: inactive
CG15563 [DRSC15101] — Call: inactive
CG10222 [DRSC09714] — Call: inactive
Marc (Mitochondrial amidoxime reducing component) [DRSC06614] — Call: inactive
CG10597 [DRSC19357] — Call: inactive
Syx18 (Syntaxin 18) [DRSC14628] — Call: inactive
Snx27 (Sorting nexin 27) [DRSC17786] — Call: inactive
Snx27 (Sorting nexin 27) [DRSC18282] — Call: inactive
Snx27 (Sorting nexin 27) [DRSC18284] — Call: inactive
Cp7Fc (Chorion protein c at 7F) [DRSC18035] — Call: inactive
CG13326 [DRSC06363] — Call: inactive
Gr58a (Gustatory receptor 58a) [DRSC03910] — Call: inactive
beat-IIa (beaten path IIa) [DRSC14813] — Call: inactive
beat-IIa (beaten path IIa) [DRSC14814] — Call: inactive
CG14564 [DRSC11725] — Call: inactive
CG14564 [DRSC22388] — Call: inactive
CG42296 [DRSC00394] — Call: inactive
LManII (Lysosomal alpha-mannosidase II) [DRSC01986] — Call: inactive
Ae2 (Anion exchanger 2) [DRSC08997] — Call: inactive
Ae2 (Anion exchanger 2) [DRSC10969] — Call: inactive
CG15200 [DRSC19647] — Call: inactive
CG31272 [DRSC16058] — Call: inactive

The list goes on; the last 4 above are carried over.
Ae2 (Anion exchanger 2) [DRSC08997] — Call: inactive
Ae2 (Anion exchanger 2) [DRSC10969] — Call: inactive
CG15200 [DRSC19647] — Call: inactive
CG31272 [DRSC16058] — Call: inactive
GatB (Glutamyl-tRNA amidotransferase, subunit B) [DRSC15807] — Call: inactive
aqz (aaquetzalli) [DRSC16570] — Call: inactive
Tim10 + CG42497 [DRSC04664] — Call: inactive
CG13540 [DRSC04182] — Call: inactive
CG6083 [DRSC10580] — Call: inactive
Dr (Drop) [DRSC17002] — Call: inactive
Dr (Drop) [DRSC22708] — Call: inactive
SPR (Sex peptide receptor) [DRSC17390] — Call: inactive
SPR (Sex peptide receptor) [DRSC17886] — Call: inactive
SPR (Sex peptide receptor) [DRSC18114] — Call: inactive
SPR (Sex peptide receptor) [DRSC21557] — Call: inactive
Grl40a (Gustatory receptor-like 40a) [DRSC03677] — Call: inactive
Ets97D (Ets at 97D) [DRSC16665] — Call: inactive
CG30395 [DRSC03896] — Call: inactive
yip3 (yippee interacting protein 3) [DRSC04724] — Call: inactive
CG34236 [DRSC05435] — Call: inactive
CG17192 [DRSC15186] — Call: inactive
CG11842 [DRSC14400] — Call: inactive
Tmem43 (Transmembrane protein 43) [DRSC10964] — Call: inactive
loaf (lost and found) [DRSC09130] — Call: inactive
cic (capicua) [DRSC14276] — Call: inactive
cic (capicua) [DRSC15708] — Call: inactive
cic (capicua) [DRSC16918] — Call: inactive
cic (capicua) [DRSC21243] — Call: inactive
